The record followed here is paper PMC8578495.

Sequences of proteins named here, by UniProt entry; tags and fusion partners are left off. A change or cut given only in a name is not applied to a line headed by its entry. Residues count along the entry.
VHL19 (P40337, residues 54-213): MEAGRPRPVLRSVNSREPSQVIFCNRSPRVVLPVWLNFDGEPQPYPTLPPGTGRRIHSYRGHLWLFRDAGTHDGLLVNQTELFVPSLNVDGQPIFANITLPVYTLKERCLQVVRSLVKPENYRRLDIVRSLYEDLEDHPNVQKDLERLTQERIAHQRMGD

Results are given in words; binding and its absence hold for the method and conditions named. In cells and extracts the contact can be indirect. Some binding calls cover weakened binding; strength is not graded here. Sequences can lack the tags named with a protein.

The assay concerns the target T1, FLAG human Mps1 (human) (UniProt P33981).
T1 sequence: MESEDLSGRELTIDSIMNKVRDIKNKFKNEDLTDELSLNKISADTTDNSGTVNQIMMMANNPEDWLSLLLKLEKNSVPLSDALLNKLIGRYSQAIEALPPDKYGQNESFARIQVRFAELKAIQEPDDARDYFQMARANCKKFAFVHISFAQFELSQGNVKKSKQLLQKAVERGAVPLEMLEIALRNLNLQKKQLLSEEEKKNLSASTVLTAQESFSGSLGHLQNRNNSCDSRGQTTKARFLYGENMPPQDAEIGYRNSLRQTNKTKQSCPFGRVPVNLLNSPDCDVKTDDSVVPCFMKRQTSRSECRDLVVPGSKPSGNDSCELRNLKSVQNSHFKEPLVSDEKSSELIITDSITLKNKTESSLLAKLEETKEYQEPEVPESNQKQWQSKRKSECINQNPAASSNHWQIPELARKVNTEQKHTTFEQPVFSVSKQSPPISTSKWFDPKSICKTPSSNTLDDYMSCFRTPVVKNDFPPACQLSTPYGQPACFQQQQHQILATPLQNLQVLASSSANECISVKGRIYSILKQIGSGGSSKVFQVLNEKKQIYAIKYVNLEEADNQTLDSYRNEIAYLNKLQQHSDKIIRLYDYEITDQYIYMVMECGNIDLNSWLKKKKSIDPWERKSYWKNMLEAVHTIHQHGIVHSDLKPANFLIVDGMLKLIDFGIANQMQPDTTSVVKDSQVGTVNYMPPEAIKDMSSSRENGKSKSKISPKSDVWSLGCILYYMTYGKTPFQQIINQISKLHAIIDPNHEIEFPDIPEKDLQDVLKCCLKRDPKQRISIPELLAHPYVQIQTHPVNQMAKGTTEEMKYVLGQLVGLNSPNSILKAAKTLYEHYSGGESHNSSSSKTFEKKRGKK
In words: co-IP; Mps1-FLAG transiently expressed in HEK293; lysate incubated with anti-FLAG antibody conjugated beads 2 h at 4 C; washed 3 times with lysis buffer (20 mM HEPES pH 7.0, 100 mM NaCl, 1 mM MgCl2, 0.1% NP40); endogenous VHL detected by immunoblotting; empty vector as control. (In general: Immunoblotting shows a protein as a band on a membrane.)

For the substance VHL19 (from UniProt P40337-3 1-160), the binding result is reported as “binds”. In the case of VHL30 (from UniProt P40337-1 1-213) it was “binds”.
